Data on two substances can be found in publication PMC12979858.

The chains behind the UniProt entries cited, without tags or fusion partners.
UniProt Q8CGF6: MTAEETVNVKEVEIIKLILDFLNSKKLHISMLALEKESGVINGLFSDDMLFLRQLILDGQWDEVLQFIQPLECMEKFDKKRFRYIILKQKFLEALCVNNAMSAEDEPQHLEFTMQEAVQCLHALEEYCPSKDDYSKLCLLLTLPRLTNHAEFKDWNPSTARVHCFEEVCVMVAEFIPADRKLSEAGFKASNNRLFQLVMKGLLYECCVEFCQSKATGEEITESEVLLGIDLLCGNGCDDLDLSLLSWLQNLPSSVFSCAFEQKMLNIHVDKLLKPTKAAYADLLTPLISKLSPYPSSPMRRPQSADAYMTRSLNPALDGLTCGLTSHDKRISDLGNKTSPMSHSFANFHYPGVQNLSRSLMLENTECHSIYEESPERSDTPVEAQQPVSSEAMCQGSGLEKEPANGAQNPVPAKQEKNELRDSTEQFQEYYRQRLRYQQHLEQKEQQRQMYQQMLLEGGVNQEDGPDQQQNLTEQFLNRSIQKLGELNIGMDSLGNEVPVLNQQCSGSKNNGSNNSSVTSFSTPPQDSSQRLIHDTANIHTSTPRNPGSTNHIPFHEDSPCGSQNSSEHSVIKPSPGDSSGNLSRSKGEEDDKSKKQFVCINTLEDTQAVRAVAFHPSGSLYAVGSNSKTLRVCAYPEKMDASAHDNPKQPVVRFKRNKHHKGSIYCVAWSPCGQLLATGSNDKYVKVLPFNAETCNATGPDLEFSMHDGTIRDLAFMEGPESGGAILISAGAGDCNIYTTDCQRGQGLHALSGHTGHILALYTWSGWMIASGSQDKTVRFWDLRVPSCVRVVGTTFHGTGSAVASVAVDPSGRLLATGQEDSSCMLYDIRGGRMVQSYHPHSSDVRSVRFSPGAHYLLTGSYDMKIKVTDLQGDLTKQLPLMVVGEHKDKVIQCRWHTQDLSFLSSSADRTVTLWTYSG

Common to all, as to assay: co-IP; HEK293T cells exogenously expressing the tagged proteins; high-salt lysis buffer (1% NP-40, 500 mM NaCl, 50 mM HEPES pH 7.8, 5 mM EDTA); anti-GFP or anti-Flag agarose beads, 4 C, 4 h; immunoblot
In general terms: In western blotting, separated proteins are transferred to a membrane and probed.

The target in assay [1] is T1, JHY first 150 residues (GFP-tagged fragment) (mouse) (UniProt E9Q793).
T1 sequence: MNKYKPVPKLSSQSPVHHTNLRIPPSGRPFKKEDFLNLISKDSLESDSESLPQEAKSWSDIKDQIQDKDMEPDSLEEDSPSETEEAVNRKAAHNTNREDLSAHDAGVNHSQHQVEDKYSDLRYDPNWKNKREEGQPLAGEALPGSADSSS

Assay [2] addresses T2, SPEF1 (tagged, expressed in HEK293T) (mouse) (UniProt Q99JL1).
T2 sequence: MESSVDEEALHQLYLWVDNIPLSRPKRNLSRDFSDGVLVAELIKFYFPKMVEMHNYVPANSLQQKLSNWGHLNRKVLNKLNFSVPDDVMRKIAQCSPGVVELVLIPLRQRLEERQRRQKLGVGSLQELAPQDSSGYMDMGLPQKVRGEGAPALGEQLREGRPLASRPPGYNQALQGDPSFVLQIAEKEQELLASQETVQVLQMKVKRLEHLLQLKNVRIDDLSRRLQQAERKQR

For the next assay, the target named is GFP-JHY (mouse) (UniProt E9Q793).

No constants are given. Whether binding was seen depends on the method and setting. In cells and extracts the contact can be indirect. Some results given as binding are weak or reduced against the parent protein; the word gives no strength. For some of these results: Tags and fused reporters may be left off the sequences shown.

As to Flag-WDR47 (from UniProt Q8CGF6 1-920), the binding result (in assay [1]; in assay [2]; with GFP-JHY (mouse)) was “binds” in each case.

On to GFP-JHY (from UniProt E9Q793 1-770), for which, in assay [2], the binding entry is “binds”.
